Where a name gives a salt, the structure may show the parent alone. The list shows a part of the results. Single values are uncertain here, since repeats match poorly.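 Human embryonic kidney cells were transiently transfected with a plasmid bearing a Renilla luciferase gene under the HSV-TK promoter. This first-round screen tests roughly ten thousand compounds for ones that increase reporter output.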
What follows are compounds tested on HEK 293FT (assay: log relative Renilla luciferase luminescence (reporter expression vs reference, reference not stated) (log (base not stated)); higher = higher recombinant reporter expression). Conditions: 10 µM; time after transfection 48 h.
Work on CNC(=C[N+](=O)[O-])NCCSCc1ccc(CN(C)C)o1 [ranitidine hydrochloride] yielded a log of -0.0535.
For CC(C)(CO)[C@@H](O)C(=O)NCCCO [dexpanthenol], the log was -0.0411.
Work on C[C@]12CC[C@@H](O)C[C@H]1CCc1ccccc12 [3alpha-hydroxy-4,4-bisnor-8,11,13-podocarpatriene] yielded a log of 0.0483.
Work on O=C(O[C@@H]1Cc2c(O)cc(O)cc2O[C@@H]1c1cc(O)c(O)c(O)c1)c1cc(O)c(O)c(O)c1 [epigallocatechin-3-monogallate] yielded a log of 0.0398.
For CCOC(=O)[C@H](CCc1ccccc1)N[C@@H](C)C(=O)N1[C@H](C(=O)O)C[C@H]2CCCC[C@@H]21 [trandolapril], the log was -0.127.
For CC[C@H](CC[C@@H](C)[C@H]1CC[C@H]2[C@@H]3CC=C4C[C@@H](OC(C)=O)CC[C@]4(C)[C@H]3CC[C@]12C)C(C)C [sitosteryl acetate], the log was -0.0361.
CC(C(=O)O)[C@H]1CCC2C3CC=C4C[C@@H](O)CC[C@]4(C)C3CC[C@@]21C (stereo partly drawn) [3beta-hydroxy-23,24-bisnorchol-5-enic acid] showed a log of -0.25.
In the case of CN1C(=O)CC(C)(c2ccccc2)C1=O (stereo not drawn) [methsuximide], the log is reported as -0.0732.
CCN(CC)CCNC(=O)c1ccc(NC(C)=O)cc1 [acecainide hydrochloride] gave a log of 0.12.
CNC[C@H](O)c1cccc(O)c1 [phenylephrine hydrochloride] showed a log of -0.0953.
CO[C@H]1C[C@@H]2CC[C@@H](C)[C@@](O)(O2)C(=O)C(=O)N2CCCC[C@H]2C(=O)O[C@H]([C@H](C)C[C@@H]2CC[C@@H](O)[C@H](OC)C2)CC(=O)[C@H](C)/C=C(\C)[C@@H](O)[C@@H](OC)C(=O)[C@H](C)C[C@H](C)/C=C/C=C/C=C/1C [sirolimus] was tested, and the log was 0.0773.
CCOc1ccccc1C(N)=O [ethenzamide] gave a log of -1.12.
In the case of COC(=O)C[C@H]1C(C)(C)[C@@H](OC(C)=O)[C@@H]2CC3=C4CC(=O)O[C@@H](c5ccoc5)[C@]4(C)CC[C@@H]3[C@@]1(C)C2=O [fissinolide], the log is reported as 0.224.
In the case of NS(=O)(=O)c1ccc(C(=O)O)cc1 [carzenide], the log is reported as -0.0831.
CC(=O)O[C@@H]1C[C@@]2(C)C(CC[C@@H]2C(C)=O)C2CCC3=CC(=O)CC[C@]3(C)C21 (stereo partly drawn) [11a-acetoxyprogesterone] was tested, and the log was 0.0463.
For CCN(CC)CCCC(C)Nc1c2ccc(Cl)cc2nc2ccc(OC)cc12 (stereo not drawn) [quinacrine hydrochloride], the log was 0.135.
Cc1nc(C)c(Cl)c(O)c1Cl [clopidol] showed a log of 0.0409.
CCCCCCCCCCCCCCCC[N+](C)(C)CCN(Cc1ccc(OC)cc1)c1ncccn1 [thonzonium bromide] showed a log of 0.0296.
Work on O=C(O)P(=O)(O)O [foscarnet sodium] yielded a log of 0.0746.
For C#C[C@]1(O)CC[C@H]2[C@@H]3CCc4cc(OC)ccc4[C@H]3CC[C@@]21C [mestranol], the log was 0.0663.
Compound CC(C)NCC(O)c1ccc(NS(C)(=O)=O)cc1 (stereo not drawn) [sotalol hydrochloride] has a log of -0.128.
CC(=O)N1CCN(c2ccc(OCC3COC(Cn4ccnc4)(c4ccc(Cl)cc4Cl)O3)cc2)CC1 (stereo not drawn) [ketoconazole] showed a log of -0.0999.
Compound CCn1cc(C(=O)O)c(=O)c2cc(F)c(N3CCN(C)CC3)cc21 [pefloxacine mesylate] has a log of 0.0481.
CCCCC(=O)Oc1ccccc1C(=O)O [valeryl salycilate] showed a log of 0.105.
Work on Cc1ccc(S(=O)(=O)NCl)cc1 [chloramine-t] yielded a log of 0.0256.
In the case of C[C@@H]1CN(c2c(F)c(N)c3c(=O)c(C(=O)O)cn(C4CC4)c3c2F)C[C@H](C)N1 [sparfloxacin], the log is reported as 0.0698.
Work on C[C@@H]1O[C@@H]1P(=O)(O)O [fosfomycin calcium] yielded a log of 0.205.
In the case of CC1(C)[C@@H](O[C@H]2O[C@H](C(=O)O)[C@@H](O)[C@H](O)[C@H]2O[C@@H]2O[C@H](C(=O)O)[C@@H](O)[C@H](O)[C@H]2O)CC[C@]2(C)[C@H]3C(=O)C=C4[C@@H]5C[C@@](C)(C(=O)O)CC[C@]5(C)CC[C@@]4(C)[C@]3(C)CC[C@@H]12 [glycyrrhizic acid, ammonium salt], the log is reported as 0.00248.
In the case of CCOC(=O)CCC(=O)O[C@H]1[C@H](O[C@@H]2[C@@H](C)[C@H](O[C@H]3C[C@@](C)(OC)[C@@H](O)[C@H](C)O3)[C@@H](C)C(=O)O[C@H](CC)[C@@](C)(O)[C@H](O)[C@@H](C)C(=O)[C@H](C)C[C@@]2(C)O)O[C@H](C)C[C@@H]1N(C)C [erythromycin ethylsuccinate], the log is reported as -0.101.
With C[C@]12C=CC(=O)C=C1CC[C@@H]1[C@@H]2C(=O)C[C@@]2(C)[C@H]1CC[C@]2(O)C(=O)CO [prednisone] the log was -0.0051.
CCn1cc(C(=O)O)c(=O)c2cc(F)c(N3CCNC(C)C3)c(F)c21 (stereo not drawn) [lomefloxacin hydrochloride] showed a log of -0.152.
In the case of CS(=O)(=O)Nc1ccc([N+](=O)[O-])cc1Oc1ccccc1 [nimesulide], the log is reported as -0.202.
OCc1ccccc1 [benzyl alcohol] gave a log of 0.0336.
With CNC(=C[N+](=O)[O-])NCCSCc1csc(CN(C)C)n1 [nizatidine] the log was -1.75.
Compound OC[C@H]1O[C@@H](OCCc2ccc(O)cc2)[C@H](O)[C@@H](O)[C@@H]1O [salidroside] has a log of -0.0135.
Compound CNCCC=C1c2ccccc2CCc2ccccc21 [nortriptyline hydrochloride] has a log of -0.0656.
Compound CCc1c2c(nc3ccc(OC(=O)N4CCC(N5CCCCC5)CC4)cc13)-c1cc3c(c(=O)n1C2)COC(=O)[C@]3(O)CC [irinotecan hydrochloride] has a log of -0.467.
Cc1ccc2c(c1)CC[C@H]1CC(=O)CC[C@]21C [13-methyl-4,4-bisnor-8,11,13-podocarpatrien-3-one] showed a log of -0.0595.
In the case of Cc1ccc(/C(=C\CN2CCCC2)c2ccccn2)cc1 [triprolidine hydrochloride], the log is reported as -0.0569.
C[C@@H](O)[C@H](N)C(=O)O [threonine (l)] gave a log of 0.042.
CC(C)(O/N=C(\C(=O)N[C@@H]1C(=O)N2C(C(=O)[O-])=C(C[n+]3ccccc3)CS[C@H]12)c1csc(N)n1)C(=O)O [ceftazidime] showed a log of 0.0168.
Compound CN1CCN(C(c2ccccc2)c2ccc(Cl)cc2)CC1 (stereo not drawn) [chlorcyclizine hydrochloride] has a log of -0.125.
Cc1ccc(C(C)C)cc2c(C)ccc1-2 [guaiazulene] was tested, and the log was 0.102.
O=C(N/N=C/c1ccc([N+](=O)[O-])o1)c1ccc(O)cc1 [nifuroxazide] showed a log of -1.56.
With NC(=O)c1ncn([C@@H]2O[C@H](CO)[C@@H](O)[C@H]2O)c1O [mizoribine] the log was 0.127.
CC(=O)Nc1ccc(S(=O)(=O)Nc2ccc([N+](=O)[O-])cc2)cc1 [sulfanitran] was tested, and the log was 0.266.
For Cc1ccc(C(=O)Nc2ccc(S(=O)(=O)O)c3cc(S(=O)(=O)O)cc(S(=O)(=O)O)c23)cc1NC(=O)c1cccc(NC(=O)Nc2cccc(C(=O)Nc3cc(C(=O)Nc4ccc(S(=O)(=O)O)c5cc(S(=O)(=O)O)cc(S(=O)(=O)O)c45)ccc3C)c2)c1 [suramin hexasodium], the log was 0.0627.
Work on CCc1cc(C(N)=S)ccn1 [ethionamide] yielded a log of 0.201.
CC(=O)Nc1c(I)c(NC(C)=O)c(I)c(C(=O)O)c1I [diatrizoic acid] showed a log of 0.0256.
C#C[C@]1(O)CC[C@H]2[C@@H]3[C@H](C)CC4=C(CCC(=O)C4)[C@H]3CC[C@@]21C [tibolone] was tested, and the log was -0.114.
Work on S=C=Nc1ccc(N=C=S)cc1 [bitoscanate] yielded a log of -0.34.
OC[C@@H](O)[C@@H](O)[C@H](O)[C@@H](O)CO [sorbitol] gave a log of -1.36.
Compound CCCCC(=O)O[C@]1(C(=O)CO)[C@@H](C)C[C@H]2[C@@H]3CCC4=CC(=O)C=C[C@]4(C)[C@@]3(F)[C@@H](O)C[C@@]21C [betamethasone valerate] has a log of -0.0458.
For COc1cc(C(=O)N2CCOCC2)cc(OC)c1OC [trimetozine], the log was -0.0585.
CC(=O)OCC(=O)[C@@]1(O)CC[C@H]2[C@@H]3CCC4=CC(=O)CC[C@]4(C)[C@H]3C(=O)C[C@@]21C [cortisone acetate] gave a log of -0.31.
For CC(=O)OCC(=O)[C@@]1(O)CC[C@H]2[C@@H]3CCC4=CC(=O)C=C[C@]4(C)[C@@]3(F)[C@@H](O)C[C@@]21C [isoflupredone acetate], the log was -0.11.
For COc1cc(O)c(C(C)=O)c(OC)c1 [xanthoxylin], the log was 0.00663.
For CN(C)CCCOc1nn(Cc2ccccc2)c2ccccc12 [benzydamine hydrochloride], the log was 0.0146.
In the case of CC(C)(O)CC[C@@H](O)[C@](C)(O)[C@H]1CC[C@@]2(O)C3=CC(=O)[C@@H]4C[C@@H](O)[C@@H](O)C[C@]4(C)[C@H]3CC[C@]12C [crustecdysone], the log is reported as -0.658.
For Cc1cc2nc3ccc(N(C)C)cc3[s+]c2cc1N [tolonium chloride], the log was -0.265.
Nc1ccc(S(=O)(=O)Nc2ccc(Cl)nn2)cc1 [sulfachlorpyridazine] gave a log of -0.0403.
COC1=C(O)C(=O)c2c(cc3oc(C(C)=O)c(O)c3c2O)C1=O [rhodocladonic acid] gave a log of 0.113.
Compound Oc1ccc(O)cc1 [hydroquinone] has a log of 0.0668.
For COc1cc2nc(N3CCN(C(=O)C4CCCO4)CC3)nc(N)c2cc1OC (stereo not drawn) [terazosin hydrochloride], the log was -0.0136.
With CC1CCC(NC(=O)N(CCCl)N=O)CC1 (stereo not drawn) [semustine] the log was 0.171.
CC1=C2C(O)C(=O)OC3CC4C(C)(C)C(=O)C=C[C@]4(C)C(CC1)[C@]23C (stereo partly drawn) [merogedunin] was tested, and the log was 0.0728.
NS(=O)(=O)c1cc2c(cc1Cl)NCNS2(=O)=O [hydrochlorothiazide] was tested, and the log was 0.203.
CC(=O)O[C@H]1CC[C@]2(C)[C@H]3CC=C4[C@@H]5CC(C)(C)CC[C@]5(C)CC[C@@]4(C)[C@]3(C)CC[C@H]2C1(C)C [beta-amyrin acetate] showed a log of 0.122.

— the supplement of paper PMC7024190
